Common to all, as to experiment: PRISMA enrichment of interactor (LFQ) in peptide spot vs all other peptide spots (log2 fold change); higher = stronger / more specific binding of the interactor to the peptide
One assay concerns the target ANP32E, Q9BTT0. As for the experimental part: (§1)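 PRISMA: 15-aa overlapping tiles (offset 8 aa) of 60 microproteins, plus SOS1/GLUT1 control peptides, were spot-synthesized on cellulose membranes in triplicate. Membranes were incubated with benzonase-treated HEK293T lysate, and bound proteins were identified by LC-MS/MS with LFQ. Enrichment is the log2 fold change of each protein in one spot versus all other spots. Only interactors passing the significance cutoff are listed.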

Sequences of proteins named here, by UniProt entry; tags and fusion partners are left off.
EEF1A2, Q05639, UniProt Q05639, whole entry: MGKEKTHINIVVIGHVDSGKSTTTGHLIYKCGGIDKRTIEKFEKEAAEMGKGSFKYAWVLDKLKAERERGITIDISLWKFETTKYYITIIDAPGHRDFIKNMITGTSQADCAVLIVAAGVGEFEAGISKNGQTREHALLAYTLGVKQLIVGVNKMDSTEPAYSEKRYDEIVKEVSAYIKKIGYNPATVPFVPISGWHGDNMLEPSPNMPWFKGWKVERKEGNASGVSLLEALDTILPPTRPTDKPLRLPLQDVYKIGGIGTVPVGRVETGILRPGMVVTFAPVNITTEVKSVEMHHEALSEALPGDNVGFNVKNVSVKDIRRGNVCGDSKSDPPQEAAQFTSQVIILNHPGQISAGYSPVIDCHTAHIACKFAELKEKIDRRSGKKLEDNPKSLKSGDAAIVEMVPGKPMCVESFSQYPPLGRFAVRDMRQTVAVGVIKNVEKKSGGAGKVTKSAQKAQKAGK
BCCIP, Q9P287, UniProt Q9P287, whole entry: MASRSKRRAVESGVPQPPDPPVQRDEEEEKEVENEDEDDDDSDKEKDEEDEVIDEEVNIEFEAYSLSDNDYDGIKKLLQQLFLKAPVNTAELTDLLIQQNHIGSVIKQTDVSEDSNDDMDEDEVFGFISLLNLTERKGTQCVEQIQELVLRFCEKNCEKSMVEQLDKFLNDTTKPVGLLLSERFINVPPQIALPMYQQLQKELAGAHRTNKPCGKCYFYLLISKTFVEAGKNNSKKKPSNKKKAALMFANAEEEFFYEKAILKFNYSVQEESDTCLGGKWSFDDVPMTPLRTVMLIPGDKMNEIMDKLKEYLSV
MAPK1, P28482, UniProt P28482, whole entry: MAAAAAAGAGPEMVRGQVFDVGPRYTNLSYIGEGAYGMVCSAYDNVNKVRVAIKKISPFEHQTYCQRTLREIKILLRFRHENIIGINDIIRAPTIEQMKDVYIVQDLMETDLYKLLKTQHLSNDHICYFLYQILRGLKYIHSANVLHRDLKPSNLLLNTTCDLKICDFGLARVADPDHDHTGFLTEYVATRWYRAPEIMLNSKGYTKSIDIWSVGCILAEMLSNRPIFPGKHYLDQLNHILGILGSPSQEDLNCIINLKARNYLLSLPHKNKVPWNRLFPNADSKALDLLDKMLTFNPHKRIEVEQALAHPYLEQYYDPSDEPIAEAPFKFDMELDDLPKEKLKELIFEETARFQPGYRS
NDUFS6, O75380, UniProt O75380, whole entry: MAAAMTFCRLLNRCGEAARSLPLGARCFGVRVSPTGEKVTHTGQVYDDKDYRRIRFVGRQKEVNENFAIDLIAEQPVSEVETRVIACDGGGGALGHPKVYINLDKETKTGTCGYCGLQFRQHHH
NDUFS7, O75251, UniProt O75251, whole entry: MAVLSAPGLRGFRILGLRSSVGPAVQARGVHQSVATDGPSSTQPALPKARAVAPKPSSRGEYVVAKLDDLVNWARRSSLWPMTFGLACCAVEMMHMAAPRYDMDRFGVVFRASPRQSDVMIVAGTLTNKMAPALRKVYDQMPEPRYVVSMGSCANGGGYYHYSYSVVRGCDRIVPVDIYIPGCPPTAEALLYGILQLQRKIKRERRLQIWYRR
POLR1C, O15160, UniProt O15160, whole entry: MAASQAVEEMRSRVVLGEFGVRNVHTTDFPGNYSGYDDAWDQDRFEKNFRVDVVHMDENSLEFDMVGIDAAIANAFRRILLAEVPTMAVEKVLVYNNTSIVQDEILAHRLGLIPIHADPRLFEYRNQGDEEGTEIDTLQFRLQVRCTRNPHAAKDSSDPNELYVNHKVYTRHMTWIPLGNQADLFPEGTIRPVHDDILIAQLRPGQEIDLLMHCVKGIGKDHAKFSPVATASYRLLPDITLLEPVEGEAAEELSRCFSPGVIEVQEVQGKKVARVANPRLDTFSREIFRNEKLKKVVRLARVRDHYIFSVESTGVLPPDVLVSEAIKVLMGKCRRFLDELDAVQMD
SET, Q01105, UniProt Q01105, whole entry: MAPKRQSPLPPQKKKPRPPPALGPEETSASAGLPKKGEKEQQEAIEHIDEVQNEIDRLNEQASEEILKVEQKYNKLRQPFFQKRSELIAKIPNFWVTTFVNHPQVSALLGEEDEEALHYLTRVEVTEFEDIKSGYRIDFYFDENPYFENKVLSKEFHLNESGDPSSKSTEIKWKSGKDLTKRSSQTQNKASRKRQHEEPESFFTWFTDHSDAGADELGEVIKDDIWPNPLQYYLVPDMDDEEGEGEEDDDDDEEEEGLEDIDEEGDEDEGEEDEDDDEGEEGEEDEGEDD
SRSF1, Q07955, UniProt Q07955, whole entry: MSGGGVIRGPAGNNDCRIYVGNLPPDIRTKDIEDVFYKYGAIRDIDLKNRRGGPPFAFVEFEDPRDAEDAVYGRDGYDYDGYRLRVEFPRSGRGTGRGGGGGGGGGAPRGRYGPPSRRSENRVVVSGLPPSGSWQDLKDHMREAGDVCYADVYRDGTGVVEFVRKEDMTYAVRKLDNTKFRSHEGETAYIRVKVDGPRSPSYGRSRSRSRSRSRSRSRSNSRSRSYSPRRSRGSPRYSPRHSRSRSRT

The next assay deals with BZW1, Q7L1Q6. As for the experimental part: as §1
The target of another assay is EEF1A2, Q05639. As for the experimental part: as §1
In another assay the target is ESYT2, A0FGR8. As for the experimental part: as §1
For the next assay, the target named is KRT6B, P04259. As for the experimental part: as §1
The target of a further assay is MEPCE, Q7L2J0. As for the experimental part:
as §1

Another assay has as its target MTG1, Q9BT17. As for the experimental part: as §1
The target in a further assay is NOL10, Q9BSC4. As for the experimental part:
as §1

A further assay addresses NUDT16L1, Q9BRJ7. As for the experimental part: as §1
The next assay has as its target PAK1IP1, Q9NWT1. As for the experimental part:
as §1

Another assay concerns the target PSMG1, O95456. As for the experimental part:
as §1

The target in the next assay is RBM8A, Q9Y5S9. As for the experimental part:
as §1

Another assay has as its target TFAM, Q00059. As for the experimental part: as §1
The target in another assay is TMEM201, Q5SNT2. As for the experimental part:
as §1

In another assay the target is ZNF483, Q8TF39. As for the experimental part: as §1
The next assay addresses ZNF668, Q96K58. As for the experimental part:
as §1

Another assay concerns the target ANP32A, P39687. As for the experimental part:
as §1

Substrate in assay [1]: BCCIP, Q9P287
As for the experimental part:
as §1

The target of another assay is BRD2, P25440. As for the experimental part:
as §1

In the next assay the target is C1QBP, Q07021. As for the experimental part:
as §1

Another assay concerns the target CTNNBL1, Q8WYA6. As for the experimental part: as §1
The target in a further assay is LLPH, Q9BRT6. As for the experimental part: as §1
A further assay addresses MTOR, P42345. As for the experimental part:
as §1

The target in a further assay is NAP1L1, P55209. As for the experimental part:
as §1

The target in a further assay is PTGES3, Q15185. As for the experimental part: as §1
The next assay addresses ANP32B, Q92688. As for the experimental part:
as §1

The target of the next assay is C11orf58, O00193. As for the experimental part: as §1
The target of another assay is CCZ1, P86791. As for the experimental part: as §1
The target of the next assay is FBXO5, Q9UKT4. As for the experimental part: as §1
A further assay has as its target FGA, P02671. As for the experimental part:
as §1

For another assay, the target named is GRB2, P62993. As for the experimental part: as §1
A further assay addresses HDGFL2, Q7Z4V5. As for the experimental part:
as §1

Another assay concerns the target MAPK1, P28482. As for the experimental part:
as §1

A further assay addresses NDUFS6, O75380. As for the experimental part:
as §1

A further assay concerns the target NDUFS7, O75251. As for the experimental part: as §1
Substrate in assay [2]: PCNP, Q8WW12
As for the experimental part:
as §1

In a further assay the target is POLR1C, O15160. As for the experimental part: as §1
Another assay addresses PREX2, Q70Z35. As for the experimental part:
as §1

For a further assay, the target named is SET, Q01105. As for the experimental part: as §1
The target of the next assay is SRSF1, Q07955. As for the experimental part: as §1
The next assay deals with SRSF2, Q01130. As for the experimental part:
as §1

Another assay has as its target SRSF5, Q13243. As for the experimental part: as §1
A further assay has as its target SRSF7, Q16629. As for the experimental part: as §1
A further assay concerns the target TRA2B, P62995. As for the experimental part:
as §1

A further assay concerns the target WDR18, Q9BV38. As for the experimental part:
as §1

± gives the standard deviation of the averaged measurements. The list shows a part of the results. The list holds hits alone, and they repeat only in part.

As for EMSTSLSVVPRQLNF [RP11-140K17.3_2], the “PRISMA enrichment of interactor (log2)” value with ANP32E, Q9BTT0 came out at 7.18; with BZW1, Q7L1Q6 it was 5.39; in the assay with EEF1A2, Q05639 it was 8.48; with ESYT2, A0FGR8, 4; with KRT6B, P04259, 4.81; in the assay with MEPCE, Q7L2J0 it was 4.82. For the same molecule, the “PRISMA enrichment of interactor (log2)” value was 5.67 with MTG1, Q9BT17; 7.09 with NOL10, Q9BSC4; 5.06 in the assay with NUDT16L1, Q9BRJ7; 4.74 in the assay with PAK1IP1, Q9NWT1; 5.55 with PSMG1, O95456; 4.62 with RBM8A, Q9Y5S9. Besides, the “PRISMA enrichment of interactor (log2)” value amounted to 8.71 with TFAM, Q00059; 6.19 with TMEM201, Q5SNT2; 4.97 with ZNF483, Q8TF39; 6.61 with ZNF668, Q96K58.

As for ARETRTKNKRAVRCR [CTC-471J1.11], the “PRISMA enrichment of interactor (log2)” value stood at 6.91 in the assay with ANP32A, P39687; 4.12 in assay [1]; 4.28 in the assay with BRD2, P25440; 6.24 with C1QBP, Q07021; 4.33 with CTNNBL1, Q8WYA6; 4.2 with LLPH, Q9BRT6. Besides, the “PRISMA enrichment of interactor (log2)” value in the assay with MTOR, P42345 was determined as 6.79; with NAP1L1, P55209, 6.29 ± 0.77; with PTGES3, Q15185, 6.48.

For KRRQEATHGSSFSHK [RP11-12K22.1], the “PRISMA enrichment of interactor (log2)” value was 6.76 with ANP32A, P39687; 5.76 with ANP32B, Q92688; 5.23 with C11orf58, O00193; 6.32 in the assay with CCZ1, P86791; 5.51 with FBXO5, Q9UKT4; 5.03 in the assay with FGA, P02671. For the same molecule, the “PRISMA enrichment of interactor (log2)” value amounted to 4.98 with GRB2, P62993; 4.57 with HDGFL2, Q7Z4V5; 4.89 in the assay with MAPK1, P28482; 8.04 in the assay with NDUFS6, O75380; 5.54 with NDUFS7, O75251; 4.15 in [2]. Besides, the “PRISMA enrichment of interactor (log2)” value with POLR1C, O15160 worked out at 4.16; with PREX2, Q70Z35 it was 6.82; with SET, Q01105, 6.74; with SRSF1, Q07955, 5.73; with SRSF2, Q01130, 5.97; with SRSF5, Q13243, 5.33. The “PRISMA enrichment of interactor (log2)” value was found to be 6.23 with SRSF7, Q16629; 5.74 in the assay with TRA2B, P62995; 4.39 with WDR18, Q9BV38.

Values taken from the supplement of paper PMC10032668.
